The chains behind the UniProt entries cited, without tags or fusion partners. Where a name states a change or a piece, a line headed by the entry shows the natural chain unless it says otherwise.
UniProt Q9Y376: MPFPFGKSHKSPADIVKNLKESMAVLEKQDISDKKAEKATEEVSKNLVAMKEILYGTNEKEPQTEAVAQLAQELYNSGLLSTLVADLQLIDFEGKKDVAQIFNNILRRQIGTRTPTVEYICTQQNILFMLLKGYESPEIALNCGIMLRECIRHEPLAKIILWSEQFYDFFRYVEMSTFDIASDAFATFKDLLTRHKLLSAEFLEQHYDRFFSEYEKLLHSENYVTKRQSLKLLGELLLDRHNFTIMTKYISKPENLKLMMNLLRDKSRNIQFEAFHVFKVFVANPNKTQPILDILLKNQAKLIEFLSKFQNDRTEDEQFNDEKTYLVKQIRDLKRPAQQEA

In PMC2686265, “ATP and MO25α Regulate the Conformational State of the STRADα Pseudokinase and Activation of the LKB1 Tumour Suppressor” (PLoS Biology, 2009):

These substances were tested against T1, GST-STRADα (wild type) (human) (UniProt Q7RTN6) (assay: pull-down; GST-STRADα and MO25α (Myc-tagged or untagged) co-expressed in 293 cells, lysed 36 h post-transfection, GST-STRADα purified on glutathione-Sepharose, immunoblot).
T1 sequence: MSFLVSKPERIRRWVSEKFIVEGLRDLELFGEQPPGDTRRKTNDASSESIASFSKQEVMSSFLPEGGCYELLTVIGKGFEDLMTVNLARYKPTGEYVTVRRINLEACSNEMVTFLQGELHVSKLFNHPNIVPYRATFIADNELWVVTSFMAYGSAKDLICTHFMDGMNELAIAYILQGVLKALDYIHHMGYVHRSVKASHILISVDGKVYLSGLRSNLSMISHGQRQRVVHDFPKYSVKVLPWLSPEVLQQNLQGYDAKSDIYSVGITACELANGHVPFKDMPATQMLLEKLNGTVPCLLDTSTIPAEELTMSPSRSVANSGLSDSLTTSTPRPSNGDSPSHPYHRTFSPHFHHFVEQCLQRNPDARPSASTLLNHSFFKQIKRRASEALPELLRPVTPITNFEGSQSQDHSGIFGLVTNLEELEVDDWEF

binding | Substance
no binding | Myc-MO25α mutated at Arg227 (αB site) (from UniProt Q9Y376)
binds | Myc-MO25α mutated at Asn269 (from UniProt Q9Y376)
no binding | Myc-MO25α mutated at Glu93 (αE site) (from UniProt Q9Y376)
binds | Myc-MO25α mutated at Leu141 (from UniProt Q9Y376)
no binding | Myc-MO25α mutated at Lys96 (αE site) (from UniProt Q9Y376)
binds | Myc-MO25α mutated at Lys231 (from UniProt Q9Y376)
no binding | Myc-MO25α mutated at Met260 (WEF pocket) (from UniProt Q9Y376)
no binding | Myc-MO25α mutated at Phe92 (αE site) (from UniProt Q9Y376)
no binding | Myc-MO25α mutated at Tyr223 (αB site) (from UniProt Q9Y376)

Results are given in words; binding and its absence hold for the method and conditions named. Binding seen in cells or lysates may run through a third protein. A result given as binding can be weak or reduced; the word gives no strength. Where a sequence is shown, tags or fusion partners need not be part of it.
